Data: the supplement of paper PMC4635364
Where a name gives a salt, the structure may show the parent alone. Some of the results follow. Single values are uncertain here, since repeats match poorly.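 Cells: ReNCell VM human fetal ventral-midbrain neural progenitors, differentiated mitogen-free. Blinded raters compared doublecortin-stained (early neurons) or tyrosine hydroxylase-stained (dopaminergic neurons) images with untreated wells, where 0 means no change. After repeats and both raters were averaged, compounds scoring 2 or above became hits for retesting.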

Legend:
ReNCell VM [1] = experiment: neuronal differentiation score (DCX+ cell fraction vs untreated, manual image score) (score (-3 to 3)); higher = more neuronal differentiation; details: 2 uM, 2 weeks
ReNCell VM [2] = experiment: dopaminergic neuron differentiation score (TH+ cell fraction vs untreated, manual image score) (score (0 to 3)); higher = more TH+ dopaminergic neuron differentiation; details: 2 uM, 4 weeks, BDNF 10 ng/ml + GDNF 10 ng/ml

Cc1nccc2c1[nH]c1ccccc12 [Harmane hydrochloride]
neuronal differentiation score (ReNCell VM [1]; library: Phytochemical): inactive: 0
dopaminergic neuron differentiation score (ReNCell VM [2]; library: Phytochemical): inactive: 0

C/C=C(/C)C(=O)O[C@H]1C(C)=C2[C@H]([C@@H]1OC(=O)CCCCCCC)[C@@](C)(OC(C)=O)C[C@H](OC(=O)CCC)[C@@]1(O)[C@H]2OC(=O)[C@@]1(C)O [Thapsigargin]
neuronal differentiation score (ReNCell VM [1]; library: LOPAC): inactive: 0
dopaminergic neuron differentiation score (ReNCell VM [2]; library: LOPAC): inactive: 0

C[C@H](Cc1ccc(OCC(=O)O)cc1)NC[C@H](O)c1cccc(Cl)c1
neuronal differentiation score (ReNCell VM [1]; library: Tocriscreen): inactive: 0
dopaminergic neuron differentiation score (ReNCell VM [2]; library: Tocriscreen): inactive: 0

C[C@@]12N[C@@H](Cc3ccccc31)c1ccccc12 [(-)-MK 801 maleate]
neuronal differentiation score (ReNCell VM [1]; library: Tocriscreen): inactive: 0
dopaminergic neuron differentiation score (ReNCell VM [2]; library: Tocriscreen): inactive: 0

O=C(N/N=C/c1ccc([N+](=O)[O-])o1)c1cc([N+](=O)[O-])cc([N+](=O)[O-])c1O
neuronal differentiation score (ReNCell VM [1]; library: Spectrum): inactive: 0
dopaminergic neuron differentiation score (ReNCell VM [2]; library: Spectrum): inactive: 0

CC(=O)C1CCC2C3CCC4C[C@H](O)CCC4(C)C3C[C@H](O)C12C (stereo partly drawn) [DIHYDROXY (3alpha,12alpha)PREGNAN-20-ONE]
neuronal differentiation score (ReNCell VM [1]; library: Spectrum): inactive: 0
dopaminergic neuron differentiation score (ReNCell VM [2]; library: Spectrum): inactive: 0

O=C1C2CCN(CC2)C1(CO)CO
neuronal differentiation score (ReNCell VM [1]; library: Tocriscreen): inactive: 0
dopaminergic neuron differentiation score (ReNCell VM [2]; library: Tocriscreen): inactive: 0

CC(=O)OCC1=C(C(=O)O)N2C(=O)[C@@H](N)[C@H]2SC1 [Cephalosporanic acid, 7-amino]
neuronal differentiation score (ReNCell VM [1]; library: Prestwick): inactive: 0
dopaminergic neuron differentiation score (ReNCell VM [2]; library: Prestwick): inactive: 0

Cc1cc(SCc2sc(-c3ccc(C(F)(F)F)c(F)c3)nc2C)ccc1OCC(=O)O
neuronal differentiation score (ReNCell VM [1]; library: Tocriscreen): inactive: 0
dopaminergic neuron differentiation score (ReNCell VM [2]; library: Tocriscreen): inactive: 0

O=C1CCCN1CC#CCN1CCCC1 [Oxotremorine sesquifumarate]
neuronal differentiation score (ReNCell VM [1]; library: Tocriscreen): inactive: 0
dopaminergic neuron differentiation score (ReNCell VM [2]; library: Tocriscreen): inactive: 0

CCOC(=O)c1ncn2c1CN(C)C(=O)c1cc(N=[N+]=[N-])ccc1-2
neuronal differentiation score (ReNCell VM [1]; library: Tocriscreen): inactive: 0
dopaminergic neuron differentiation score (ReNCell VM [2]; library: Tocriscreen): inactive: 0

N=C(N)NN [Aminoguanidine hemisulfate]
neuronal differentiation score (ReNCell VM [1]; library: LOPAC): inactive: 0
dopaminergic neuron differentiation score (ReNCell VM [2]; library: LOPAC): inactive: 0

COc1cc([C@@H]2c3cc4c(cc3[C@H](O)[C@H]3COC(=O)[C@H]23)OCO4)cc(OC)c1OC [podophyllotoxin]
neuronal differentiation score (ReNCell VM [1]; library: Natural): inactive: 0
dopaminergic neuron differentiation score (ReNCell VM [2]; library: Natural): inactive: 0

COc1cc(OC)c2c(c1)O[C@H](c1ccc(OC)c(OC)c1)[C@@H](O)C2
neuronal differentiation score (ReNCell VM [1]; library: Spectrum): inactive: 0
dopaminergic neuron differentiation score (ReNCell VM [2]; library: Spectrum): inactive: 0

Cn1c2c(c3ccccc31)CCNCC2
neuronal differentiation score (ReNCell VM [1]; library: Tocriscreen): inactive: 0
dopaminergic neuron differentiation score (ReNCell VM [2]; library: Tocriscreen): inactive: 0

Oc1cccc2cccnc12
neuronal differentiation score (ReNCell VM [1]; library: Spectrum): inactive: 0
dopaminergic neuron differentiation score (ReNCell VM [2]; library: Spectrum): inactive: 0

O=C1C=CC(=O)C=C1 [p-Benzoquinone]
neuronal differentiation score (ReNCell VM [1]; library: LOPAC): inactive: 0
dopaminergic neuron differentiation score (ReNCell VM [2]; library: LOPAC): inactive: 0

C[C@]12CC[C@@H]3c4ccc(OC(=O)N(CCCl)CCCl)cc4CC[C@H]3[C@@H]1CC[C@@H]2O
neuronal differentiation score (ReNCell VM [1]; library: Spectrum): inactive: 0
dopaminergic neuron differentiation score (ReNCell VM [2]; library: Spectrum): inactive: 0

CN1C2CCC1CC(OC(=O)[C@H]1CC[C@](C(=O)OC3CC4CCC(C3)N4C)(c3ccccc3)c3ccccc31)C2 (stereo partly specified) [belladonnine]
neuronal differentiation score (ReNCell VM [1]; library: Natural): inactive: 0
dopaminergic neuron differentiation score (ReNCell VM [2]; library: Natural): inactive: 0

COCC#CCN1CCCCC1c1cccnc1 (stereo unspecified)
neuronal differentiation score (ReNCell VM [1]; library: Natural): inactive: 0
dopaminergic neuron differentiation score (ReNCell VM [2]; library: Natural): inactive: 0

CCOP(=S)(OCC)Oc1nc(Cl)c(Cl)cc1Cl
neuronal differentiation score (ReNCell VM [1]; library: Spectrum): inactive: 0
dopaminergic neuron differentiation score (ReNCell VM [2]; library: Spectrum): inactive: 1

CNC(C)C(O)c1ccccc1 (stereo unspecified)
neuronal differentiation score (ReNCell VM [1]; library: Spectrum): inactive: 0
dopaminergic neuron differentiation score (ReNCell VM [2]; library: Spectrum): inactive: 0

CCCN1C[C@H](CSC)C[C@@H]2c3cccc4[nH]cc(c34)C[C@H]21
neuronal differentiation score (ReNCell VM [1]; library: Spectrum): inactive: 0
dopaminergic neuron differentiation score (ReNCell VM [2]; library: Spectrum): inactive: 0

O=C(O)Cc1cccnc1C(=O)O [Homoquinolinic acid]
neuronal differentiation score (ReNCell VM [1]; library: Tocriscreen): inactive: 0
dopaminergic neuron differentiation score (ReNCell VM [2]; library: Tocriscreen): inactive: 0

CC(C)c1c(CN(C)C(C)Cc2ccccc2)n(C)n(-c2ccccc2)c1=O (stereo unspecified) [Famprofazone]
neuronal differentiation score (ReNCell VM [1]; library: Prestwick): inactive: 0
dopaminergic neuron differentiation score (ReNCell VM [2]; library: Prestwick): inactive: 0

CC1C2Cc3ccc(O)cc3C1(C)CCN2CC1CC1 (single isomer, unassigned; (+)) [(+)-Cyclazocine]
neuronal differentiation score (ReNCell VM [1]; library: LOPAC): inactive: 0
dopaminergic neuron differentiation score (ReNCell VM [2]; library: LOPAC): inactive: 0

N[C@@H]1C[C@H]1c1ccccc1.N[C@H]1C[C@@H]1c1ccccc1
neuronal differentiation score (ReNCell VM [1]; library: Spectrum): inactive: -3
dopaminergic neuron differentiation score (ReNCell VM [2]; library: Spectrum): inactive: 0

CCCN(CCC)[C@H]1CCc2c(F)ccc(O)c2C1 [S(-)-UH-301 hydrochloride]
neuronal differentiation score (ReNCell VM [1]; library: LOPAC): inactive: 0
dopaminergic neuron differentiation score (ReNCell VM [2]; library: LOPAC): inactive: 0

CCCN(C/C=C/I)C1CCc2ccc(O)cc2C1 (stereo unspecified) [7-Hydroxy-PIPAT maleate]
neuronal differentiation score (ReNCell VM [1]; library: Tocriscreen): inactive: 0
dopaminergic neuron differentiation score (ReNCell VM [2]; library: Tocriscreen): inactive: 0

CCN1C[C@]2(COC)[C@H](O)C[C@H](OC)[C@@]34[C@@H]5C[C@@]6(O)[C@H](OC(=O)c7ccccc7)[C@@H]5[C@@](OC(C)=O)([C@@H]([C@H](OC)[C@H]23)[C@@H]14)[C@@H](O)[C@@H]6OC [Aconitine]
neuronal differentiation score (ReNCell VM [1]; library: Phytochemical): inactive: 0
dopaminergic neuron differentiation score (ReNCell VM [2]; library: Phytochemical): inactive: 0

Clc1ccc(N2CCN(Cc3c[nH]c4ncccc34)CC2)cc1 [L-745,870 hydrochloride]
neuronal differentiation score (ReNCell VM [1]; library: LOPAC): inactive: 0
dopaminergic neuron differentiation score (ReNCell VM [2]; library: LOPAC): inactive: 0

COC(=O)[C@@H]1C[C@H](OC(C)=O)C(=O)[C@H]2[C@@]1(C)CC[C@H]1C(=O)O[C@H](c3ccoc3)C[C@]21C
neuronal differentiation score (ReNCell VM [1]; library: Spectrum): inactive: 0
dopaminergic neuron differentiation score (ReNCell VM [2]; library: Spectrum): inactive: 0

Oc1ccc2c3c1O[C@H]1[C@@H](O)CC[C@@]4(O)[C@@H](C2)N(CC2CCC2)CC[C@]314
neuronal differentiation score (ReNCell VM [1]; library: Spectrum): inactive: 0
dopaminergic neuron differentiation score (ReNCell VM [2]; library: Spectrum): inactive: 0
